From doi:10.1101/2023.06.23.544932
No constants are given. Whether binding was seen depends on the method and setting. Binding seen in cells or lysates may run through a third protein. A result given as binding can be weak or reduced; the word gives no strength.

The chains behind the UniProt entries cited, without tags or fusion partners. Where a name states a change or a piece, a line headed by the entry shows the natural chain unless it says otherwise.
UniProt Q8S307: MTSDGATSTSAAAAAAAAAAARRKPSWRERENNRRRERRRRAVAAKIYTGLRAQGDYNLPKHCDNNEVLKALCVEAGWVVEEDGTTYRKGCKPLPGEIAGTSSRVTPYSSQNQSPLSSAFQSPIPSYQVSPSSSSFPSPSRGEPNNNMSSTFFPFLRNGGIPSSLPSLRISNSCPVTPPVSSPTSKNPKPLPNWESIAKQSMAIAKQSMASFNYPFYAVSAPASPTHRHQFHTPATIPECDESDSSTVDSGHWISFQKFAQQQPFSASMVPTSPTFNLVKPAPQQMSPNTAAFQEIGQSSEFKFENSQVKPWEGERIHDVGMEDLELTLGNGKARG
UniProt F4JBZ1: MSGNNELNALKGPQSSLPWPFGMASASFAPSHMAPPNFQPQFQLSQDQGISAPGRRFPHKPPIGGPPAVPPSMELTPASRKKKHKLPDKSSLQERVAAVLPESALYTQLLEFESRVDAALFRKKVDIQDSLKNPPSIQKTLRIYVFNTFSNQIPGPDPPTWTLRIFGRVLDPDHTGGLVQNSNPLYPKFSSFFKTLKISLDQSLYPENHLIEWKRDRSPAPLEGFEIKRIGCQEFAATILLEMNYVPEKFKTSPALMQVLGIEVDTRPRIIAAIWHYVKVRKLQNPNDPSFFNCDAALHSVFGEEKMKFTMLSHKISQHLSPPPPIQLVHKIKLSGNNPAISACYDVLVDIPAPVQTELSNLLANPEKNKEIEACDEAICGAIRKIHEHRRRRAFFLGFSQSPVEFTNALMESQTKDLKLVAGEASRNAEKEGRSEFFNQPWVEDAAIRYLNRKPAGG

Target: BZR1-FLAG (Arabidopsis thaliana) (UniProt Q8S307)
Test: co-IP

Row | Substance | binding
1 | BROMODOMAIN-CONTAINING PROTEIN 13 (BRD13)-HA (from UniProt F4K3B4) | binds
2 | SWI/SNF ASSOCIATED PROTEIN 73A (SWP73A)-HA (from UniProt F4JBZ1) | binds
